Measured values as given in publication PMC12202928, “Bidirectional interdomain crosstalk in a Porphyromonas gingivalis chimeric enzyme coordinates catalytic synergy for aromatic amino acid biosynthesis” (Frontiers in Microbiology, 2025).
Results are given in words; binding and its absence hold for the method and conditions named.

Target: PgiDAH7PS (separated DAH7PS domain of PgiDAH7PS-CM) (Porphyromonas gingivalis) (UniProt B2RJM7)
Assay: SEC; analytical SEC on ENrich SEC 650 calibrated with mass standards; 50 mM BTP pH 7.4, 4°C, protein loaded at 1 mg/mL, 0.2 mL/min; apparent mass compared with theoretical monomer mass; both purified

- binding: no binding (tested: 1 mg/mL)
B1: PgiDAH7PS (separated DAH7PS domain of PgiDAH7PS-CM) (domain or fragment, UniProt B2RJM7 1-258)
chain: MKYCDFTPLPLPSEPNTTVIAGPCSAESEEQIMTTARALRDEAGIRIFRAGLWKPRTLPGCFEGVGETGLPWLVRVQDELDMLATTEVATREHVEQAMQAGIRILWLGARTTSNPFAVQEIADTIGKDESVIVLVKNPISPDLDLWTGALERLRQSGVRQIGAIHRGFSTYATKTFRNPPHWQIPFDLKRRFPSLTILCDPSHITGQRDRIESVSQQAMEMNFDGLIIESHCCPDKALSDASQQITPTVLAQILRRLR
